Assay results as given in patent US20230124862A1, “BISMUTH THIOL COMPOUNDS AND COMPOSITIONS AND METHODS OF TREATING MICROBIAL CO-INFECTIONS” (Microbion Corporation, priority 2020, published 2023).
Read-outs that look alike come from different tables or passages of the source. For part of these data: At least one compound was matched to its structure with a doubt left. Some results were stated once for a whole list of compounds, not compound by compound.

Columns and labels:
[1] = tested on: Haemophilus influenzae; experiment: Broth microdilution MIC, Haemophilus influenzae clinical isolates; format: cell-based; conditions: all evaluated H. influenzae strains
[2] = tested on: S. aureus; conditions: S. aureus MMX 101 (ATCC 29213); cited from earlier work
[3] = tested on: Anaerobes (Bacteroides fragilis, Clostridium difficile); conditions: cited from earlier work
[4] = format: physicochemical

bismuth-1,2-ethanedithiol, 2-mercaptopyridine N-oxide [BisEDT/PYR]
MIC [1]: < 0.06 µg/mL

CCC[C@@H]1C[C@@H](C(=O)N[C@@H]([C@H]2O[C@H](SC)[C@H](O)[C@@H](O)[C@H]2O)[C@H](C)Cl)N(C)C1 [clindamycin, reference compound]
CLSI QC range of MIC [2]: (0.06-0.25) μg/mL | CLSI QC range of MIC ([3]; B. fragilis MMX 123 (ATCC 25285)): (0.5-2)^1 μg/mL | CLSI QC range of MIC ([3]; C. difficile MMX 4381 (ATCC 700057)): (2-8) μg/mL

C1C[S][Bi]([S]CC[S][Bi]2[S]CC[S]2)[S]1 [X-ray amorphous BisEDT]
XRPD result [4]: Diffuse scatter

C[C@H]1COc2c(N3CCN(C)CC3)c(F)cc3c(=O)c(C(=O)O)cn1c23 [Levofloxacin, reference compound]
CLSI QC range of MIC [2]: (0.06-0.5)^1 μg/mL
